Results deposited as PubChem BioAssay AID1159584 (Peter MacCallum Cancer Centre, 2016)
This is one part, drawn at random, of about 18,000 reagents. No sequences are given here. Not given: the amount of reagent, the time to read-out.

Test: 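Genes whose loss is lethal only together with E-cadherin loss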 (primary screen)
Cell system: human MCF10A breast epithelial cells, parental and CDH1-null
Reagent: siRNA against human genes
Detection: 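Cell viability by CellTiter-Glo ATP luminescence, each line scaled to the mean of mock wells across plates, then CDH1-null over parental ratio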
Reading the numbers: CDH1-null / parental viability ratio: higher = CDH1-null cells survive relatively better than parental; CDH1-null viability vs mock: higher = more viable CDH1-null cells; parental viability vs mock: higher = more viable parental cells

| Target gene | CDH1-null / parental viability ratio | CDH1-null viability vs mock (fraction of mock) | parental viability vs mock (fraction of mock) |
| --- | --- | --- | --- |
| ANKRD2 | 1 | 0.78 | 0.78 |
| GLUL | 1.03 | 1 | 0.97 |
| MON1B | 1.05 | 0.86 | 0.82 |
| KIAA1958 | 1.75 | 0.91 | 0.52 |
| TSLIG3C | 1 | 0.78 | 0.78 |
| OR8U3 | 0.97 | 0.76 | 0.78 |
| ZFYVE28 | 1.15 | 0.62 | 0.54 |
| ZNF415 | 0.65 | 0.4 | 0.62 |
| TIFA | 0.84 | 0.69 | 0.82 |
| COLQ | 1.1 | 0.68 | 0.62 |
| MTCL1 | 0.85 | 0.74 | 0.87 |
| ITGA10 | 0.93 | 0.7 | 0.75 |
| H3C8 | 0.93 | 0.78 | 0.84 |
| DNAH11 | 0.93 | 0.82 | 0.88 |
| ADAMTS1 | 1.24 | 0.52 | 0.42 |
| EAF2 | 1.11 | 1.04 | 0.94 |
| LAD1 | 1.14 | 0.98 | 0.86 |
| TMOD1 | 0.79 | 0.54 | 0.68 |
| GGT7 | 1.13 | 0.86 | 0.76 |
| PARG | 1 | 1.04 | 1.04 |
| ZKSCAN3 | 1.03 | 1.02 | 0.99 |
| PHEX | 1.09 | 0.83 | 0.76 |
| ZNF589 | 0.96 | 0.73 | 0.76 |
| DEFB127 | 1.1 | 0.54 | 0.49 |
| TMEM71 | 0.84 | 0.86 | 1.02 |
| SLC39A13 | 0.82 | 0.62 | 0.76 |
| TMPRSS11A | 1 | 0.78 | 0.78 |
| DGKQ | 0.96 | 0.82 | 0.85 |
| BLZF1 | 0.9 | 0.96 | 1.07 |
| STAT5B | 1.02 | 0.88 | 0.86 |
| SACK1F | 0.98 | 0.94 | 0.96 |
| DCAF1 | 1.24 | 0.88 | 0.71 |
| GMEB2 | 1.05 | 0.92 | 0.88 |
| PLOD1 | 1.06 | 0.67 | 0.63 |
| SSBP2 | 1.5 | 0.84 | 0.56 |
| ATG9A | 1.67 | 0.7 | 0.42 |
| NCAPD3 | 0.85 | 0.57 | 0.67 |
| LMLN | 1.05 | 0.8 | 0.76 |
| FLYWCH2 | 1.2 | 0.96 | 0.8 |
| HSPB7 | 1.38 | 0.88 | 0.64 |
| HEXIM1 | 0.92 | 0.73 | 0.79 |
| VPS13D | 1.12 | 0.76 | 0.68 |
| AKR1C1 | 1.21 | 0.76 | 0.63 |
| NR3C1 | 0.91 | 0.5 | 0.55 |
| PIK3C2B | 0.91 | 0.73 | 0.8 |
| CST11 | 0.96 | 0.94 | 0.98 |
| UBE4B | 1.16 | 1.04 | 0.9 |
| EBNA1BP2 | 0.85 | 0.35 | 0.41 |
| PAPSS1 | 0.97 | 0.94 | 0.97 |
| VAMP5 | 0.9 | 0.54 | 0.6 |
| ELF5 | 0.88 | 0.91 | 1.04 |
| LIPG | 1.15 | 1.17 | 1.02 |
| IRS2 | 0.51 | 0.36 | 0.7 |
| AMBN | 0.98 | 0.63 | 0.64 |
| DDA1 | 0.86 | 0.72 | 0.84 |
| ANAPC2 | 1.1 | 0.99 | 0.9 |
| ESRRB | 1.18 | 1.11 | 0.94 |
| ATF7IP | 0.87 | 0.7 | 0.8 |
| YAP1 | 0.91 | 0.8 | 0.88 |
| KIF2A | 0.88 | 0.84 | 0.95 |
| PRKY | 1 | 0.42 | 0.42 |
| ALG11 | 0.95 | 0.74 | 0.78 |
| PCP2 | 1.27 | 0.71 | 0.56 |
| VPS54 | 0.87 | 0.35 | 0.4 |
| COX5A | 1.07 | 0.86 | 0.8 |
| MDM4 | 0.74 | 0.5 | 0.68 |
| SAXO2 | 0.87 | 1 | 1.15 |
| FFAR4 | 0.74 | 0.7 | 0.95 |
